This passage reports T/C and survivor count results from PubChem BioAssay AID330 (DTP/NCI, 2004).

The list does not hold the whole screen: it gathers tests that were run many times, whatever their T/C, doses with no T/C, and many T/C values between a quarter and a half above the control. Other doses and runs of a compound stand elsewhere. T/C is the treated group as % of the vehicle group. Some entries give survivors of the animals treated and no T/C: the source holds a T/C of zero for them, seemingly a mark for toxic or unscored doses. Some survivor counts are full or nearly so, which does not show that the dose was tolerated: the source hardly ever lists a survival T/C far under the control, and the zero likely stands for such cases as well. Counts of survivors are from the toxicity check (mostly the fifth day) where no day follows; animals may have died later. Schedule codes are those of the source, read here as Q, the interval in days (D) or hours (H), X, the number of doses. Some entries were tested several times; their values stand side by side, smallest first. For survival time, this PubChem deposit counts one and a half times the control or more as active, and values a quarter to a half above the control carry no call in these data; other NCI protocols may use other cut-offs. Additions like (4×) count equal records among those shown. Some T/C values are followed by the survivors on the day toxicity was checked, most often the fifth; without a count, all were alive then.

This test has as its system P388 leukemia ip, CD2F1 mice, survival T/C. Description: NCI In Vivo Anticancer Drug Screen. Data for tumor model P388 Leukemia (intraperitoneal) in CD2F1 (CDF1) mice. To be noted: T/C endpoint: median survival time, higher T/C = longer survival.
Where [1] appears, read: dose: 200.0 mg/kg/injection, schedule: Q01DX005 (ip), vehicle: saline with Tween-80.
[2] abbreviates: dose: 25.0 mg/kg/injection, schedule: Q01DX009 (ip), vehicle: saline with Tween-80.
The mark [3] stands for this setting: dose: 200.0 mg/kg/injection, schedule: Q01DX009 (ip), vehicle: saline with Tween-80.
The mark [4] stands for this setting: dose: 50.0 mg/kg/injection, schedule: Q01DX009 (ip), vehicle: distilled water + Tween-80.

Turning to `O=C(CC(O)(C(F)(F)F)C(F)(F)F)c1cccs1`, the T/C (dose: 200.0 mg/kg/injection, schedule: Q04DX003 (ip), vehicle: saline with Tween-80) is 125 % of control [5 of 6 alive].
On to `O=C1C2C3C=CC(C3)C2C(=O)N1c1ccc2nc(SC3C=CCCC3)sc2c1` (stereo not drawn), for which the survivor count (dose: 100.0 mg/kg/injection, schedule: Q01DX009 (ip), vehicle: Klucel (hydroxypropylcellulose) (HPC)) is 6 of 6.
Regarding `Cc1ccc(C(C(C)[N+](=O)[O-])C(C(=O)c2ccccc2)S(=O)(=O)c2ccccc2)cc1` (stereo not drawn), the survivor count (dose: 50.0 mg/kg/injection, schedule: Q01DX005 (ip), vehicle: Klucel (hydroxypropylcellulose) (HPC)) is given as 6 of 6.
Regarding `CCOC(=O)C1=C(N)N(S(=O)(=O)c2ccc(C)cc2)CCC(C(=O)OC)=C1`, the T/C (dose: 60.0 mg/kg/injection, schedule: Q01DX005 (ip), vehicle: saline with Tween-80) is 125 % of control.
Turning to `CC(NC(=O)OCc1ccccc1)C(=O)NC1C(O)OC(CO)C(O)C1O` (stereo not drawn), the survivor count runs as follows: (dose: 12.5 mg/kg/injection, schedule: Q01DX009 (ip), vehicle: water) 6 of 6; (dose: 50.0 mg/kg/injection, schedule: Q01DX009 (ip), vehicle: other) 0 of 6; (dose: 100.0 mg/kg/injection, schedule: Q01DX009 (ip), vehicle: other) 0 of 6; (dose: 200.0 mg/kg/injection, schedule: Q01DX009 (ip), vehicle: other) 0 of 6.
For `C#CC(C)(CC(C)C)OCCN(CC)CC` (stereo not drawn), the survivor count runs as follows: (dose: 50.0 mg/kg/injection, schedule: Q01DX005 (ip), vehicle: saline with Tween-80) 3 of 6; (dose: 100.0 mg/kg/injection, schedule: Q01DX005 (ip), vehicle: saline with Tween-80) 1 of 6; under setting [1], 0 of 6.
As for `OC(c1ccccc1)C(O)C(c1ccccc1)N1CCCCC1` (stereo not drawn), the survivor count (dose: 400.0 mg/kg/injection, schedule: Q01DX009 (ip), vehicle: saline) is listed as 6 of 6.
Consider `COc1ccccc1N=NNc1ccc(S(=O)(=O)NC(C)=O)cc1`, for which the survivor count (dose: 200.0 mg/kg/injection, schedule: Q01DX005 (ip), vehicle: Klucel (hydroxypropylcellulose) (HPC)) is recorded as 5 of 5.
On to `N#Cc1c(-c2ccccc2)nc2sccn12`, for which the survivor count (dose: 200.0 mg/kg/injection, schedule: Q01DX001 (ip), vehicle: Klucel (hydroxypropylcellulose) (HPC)) is 5 of 6.
Take `COc1cc(/C=C\C(=O)c2cccc(O)c(=O)c2)cc(OC)c1OC`: under “dose: 200.0 mg/kg/injection, schedule: Q01DX009 (ip), vehicle: Klucel (hydroxypropylcellulose) (HPC)”, the survivor count was 4 of 6.
As for `C=CC[N+](CCO)(CCO)CCCCCCCCCCCCCCCCCC`, the survivor count under setting [2] is reported as 6 of 6.
Turning to `c1ccc(N=C2c3ccccc3NC2(c2ccccc2)c2ccccc2)cc1`, the survivor count under setting [3] is 6 of 6.
Take `COC(=O)C1(C(=O)OC)CCCC2=NOC3CCC1C23` (stereo not drawn): the survivor count is, setting by setting: (dose: 60.0 mg/kg/injection, schedule: Q01DX005 (ip), vehicle: Klucel (hydroxypropylcellulose) (HPC)) 0 of 6; (dose: 120.0 mg/kg/injection, schedule: Q01DX005 (ip), vehicle: Klucel (hydroxypropylcellulose) (HPC)) 0 of 6; (dose: 240.0 mg/kg/injection, schedule: Q01DX005 (ip), vehicle: Klucel (hydroxypropylcellulose) (HPC)) 0 of 6.
On to `CCCCCCC1NC1Cc1ccc(Cl)c(Cl)c1` (stereo not drawn), for which the survivor count is 0 of 6 (dose: 100.0 mg/kg/injection, schedule: Q01DX009 (ip), vehicle: saline with Tween-80); 0 of 6 under setting [3]; 0 of 6 (dose: 400.0 mg/kg/injection, schedule: Q01DX009 (ip), vehicle: saline with Tween-80).
Turning to `CCOc1cc(/C=N/NC(=O)N(c2ccccc2)c2ccccc2)ccc1O`, under setting [1], the survivor count is given as 6 of 6.
For `CCC1=C[C@H]2CN(CCc3c([nH]c4ccccc34)[C@@](C(=O)OC)(c3cc4c(cc3OC)N(C)[C@H]3[C@@](O)(C(=O)NN)[C@H](O)[C@]5(CC)C=CCN6CC[C@]43[C@@H]65)C2)C1`, the T/C (dose: 0.06 mg/kg/injection, schedule: Q01DX001 (ip), vehicle: water) is 134 % of control; the T/C (dose: 0.13 mg/kg/injection, schedule: Q01DX001 (ip), vehicle: water) was 137 % of control; the T/C (dose: 0.25 mg/kg/injection, schedule: Q01DX001 (ip), vehicle: water) was 146 % of control. The survivor count (dose: 4.0 mg/kg/injection, schedule: Q01DX001 (ip), vehicle: water) is on record as 5 of 6; the survivor count (dose: 8.0 mg/kg/injection, schedule: Q01DX001 (ip), vehicle: water) is given as 2 of 6; the survivor count (dose: 16.0 mg/kg/injection, schedule: Q01DX001 (ip), vehicle: water) is 0 of 6; the survivor count (dose: 32.0 mg/kg/injection, schedule: Q01DX001 (ip), vehicle: water) was 0 of 6.
For the molecule `COc1ccc2c(Nc3ccc(NS(C)(=O)=O)cc3)c3ccccc3nc2c1`, the T/C is 138 % of control (dose: 0.18 mg/kg/injection, schedule: Q01DX009 (ip), vehicle: saline with Tween-80); 138 % of control (dose: 0.27 mg/kg/injection, schedule: Q01DX009 (ip), vehicle: saline with Tween-80); 138 % of control (dose: 0.4 mg/kg/injection, schedule: Q01DX009 (ip), vehicle: saline with Tween-80); 149 % of control (dose: 0.6 mg/kg/injection, schedule: Q01DX009 (ip), vehicle: saline with Tween-80); 145 % of control (dose: 1.25 mg/kg/injection, schedule: Q01DX009 (ip), vehicle: saline with Tween-80); 125 % of control (dose: 1.65 mg/kg/injection, schedule: Q04DX003 (ip), vehicle: saline with Tween-80). In addition, the T/C is, setting by setting: (dose: 2.5 mg/kg/injection, schedule: Q04DX003 (ip), vehicle: saline with Tween-80) 128 % of control; (dose: 3.75 mg/kg/injection, schedule: Q04DX003 (ip), vehicle: saline with Tween-80) 144 % of control; (dose: 8.8 mg/kg/injection, schedule: Q04DX003 (ip), vehicle: saline with Tween-80) 131 % of control. The survivor count is given as 6 of 6 (dose: 37.5 mg/kg/injection, schedule: Q01DX009 (ip), vehicle: saline with Tween-80) and 6 of 6 (dose: 75.0 mg/kg/injection, schedule: Q01DX009 (ip), vehicle: saline with Tween-80).
As to `C=CC(=O)N1CN(C(=O)C=C)CN(C(=O)C=C)C1`, the T/C reads like this: (dose: 3.12 mg/kg/injection, schedule: Q01DX009 (ip), vehicle: saline with Tween-80) 144 [5 of 6 alive] and 148 % of control [5 of 6 alive]; (dose: 6.25 mg/kg/injection, schedule: Q01DX009 (ip), vehicle: saline with Tween-80) 142 % of control; (dose: 12.5 mg/kg/injection, schedule: Q01DX009 (ip), vehicle: saline with Tween-80) 143 % of control. Further, under setting [2], the survivor count is 0 of 6.
`CNC(=O)OCc1c(COC(=O)NC)c(-c2ccc(Cl)c(Cl)c2)n(C)c1C`: the T/C by setting is: (dose: 6.25 mg/kg/injection, schedule: Q01DX009 (ip), vehicle: distilled water + Tween-80) 137 [5 of 6 alive] and 145 % of control; (dose: 12.5 mg/kg/injection, schedule: Q01DX009 (ip), vehicle: distilled water + Tween-80) 138 and 148 % of control; under setting [4], 133 % of control. Besides, the survivor count is 6 of 6 under setting [4]; 1 of 6 and 2 of 6 (dose: 100.0 mg/kg/injection, schedule: Q01DX009 (ip), vehicle: distilled water + Tween-80).
Regarding `Nc1nc(Cl)c(N=Nc2ccccc2)c(=O)[nH]1`, the survivor count runs as follows: (dose: 120.0 mg/kg/injection, schedule: Q01DX005 (ip), vehicle: saline with Tween-80) 5 of 6 and 6 of 6; (dose: 240.0 mg/kg/injection, schedule: Q01DX005 (ip), vehicle: saline with Tween-80) 6 of 6.
As for `N#Cc1ccc(NC(=O)Nc2nccs2)cc1`, the T/C reads like this: (dose: 25.0 mg/kg/injection, schedule: Q01DX009 (ip), vehicle: distilled water + Tween-80) 127 % of control (2×); under setting [4], 127, 128, 132 % of control. In addition, the survivor count (dose: 200.0 mg/kg/injection, schedule: Q01DX009 (ip), vehicle: distilled water + Tween-80) was 0 of 6 and 3 of 6; the survivor count (dose: 400.0 mg/kg/injection, schedule: Q01DX009 (ip), vehicle: distilled water + Tween-80) was 0 of 6.
For the molecule `O=C(CCc1ccc(O)cc1)c1c(O)cc(O)cc1O`, the survivor count (dose: 400.0 mg/kg/injection, schedule: Q01DX009 (ip), vehicle: saline + alcohol) is on record as 4 of 6.
